For one assay, the target named is T1, Peregrin (Homo sapiens) (UniProt P55201).
T1 sequence (whole entry): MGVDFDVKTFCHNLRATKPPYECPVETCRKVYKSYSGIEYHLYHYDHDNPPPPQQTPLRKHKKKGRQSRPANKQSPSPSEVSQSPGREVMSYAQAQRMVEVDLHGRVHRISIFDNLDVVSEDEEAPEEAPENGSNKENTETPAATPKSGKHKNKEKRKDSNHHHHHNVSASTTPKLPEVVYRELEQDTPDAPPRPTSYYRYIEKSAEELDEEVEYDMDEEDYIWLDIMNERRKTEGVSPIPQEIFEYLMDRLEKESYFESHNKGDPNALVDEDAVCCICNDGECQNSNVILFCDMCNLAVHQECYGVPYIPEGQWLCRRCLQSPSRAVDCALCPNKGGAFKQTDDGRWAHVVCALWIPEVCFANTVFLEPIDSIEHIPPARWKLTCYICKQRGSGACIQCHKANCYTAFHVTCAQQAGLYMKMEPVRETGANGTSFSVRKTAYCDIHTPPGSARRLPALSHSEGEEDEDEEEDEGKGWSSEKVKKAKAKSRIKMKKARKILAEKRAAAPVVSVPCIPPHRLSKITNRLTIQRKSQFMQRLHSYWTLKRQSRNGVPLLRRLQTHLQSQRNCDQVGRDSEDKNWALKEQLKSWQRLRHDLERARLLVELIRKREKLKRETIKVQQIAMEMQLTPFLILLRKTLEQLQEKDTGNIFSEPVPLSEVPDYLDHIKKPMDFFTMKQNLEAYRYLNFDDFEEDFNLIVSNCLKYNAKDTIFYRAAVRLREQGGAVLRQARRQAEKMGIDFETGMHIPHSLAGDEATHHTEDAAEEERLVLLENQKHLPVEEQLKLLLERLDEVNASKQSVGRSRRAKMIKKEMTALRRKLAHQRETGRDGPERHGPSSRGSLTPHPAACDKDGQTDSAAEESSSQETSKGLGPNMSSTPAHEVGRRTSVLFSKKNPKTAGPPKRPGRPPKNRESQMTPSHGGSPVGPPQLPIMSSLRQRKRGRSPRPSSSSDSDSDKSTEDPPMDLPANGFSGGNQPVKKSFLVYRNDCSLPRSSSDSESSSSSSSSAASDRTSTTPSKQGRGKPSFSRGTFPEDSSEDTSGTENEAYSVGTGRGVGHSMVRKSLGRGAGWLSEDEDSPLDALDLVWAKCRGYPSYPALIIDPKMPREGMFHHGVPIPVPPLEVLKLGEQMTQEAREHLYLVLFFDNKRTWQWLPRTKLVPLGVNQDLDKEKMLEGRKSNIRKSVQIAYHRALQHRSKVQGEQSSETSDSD
The conditions noted are these: Compound concentration 20.0 uM, Protein concentration 2.0 uM, Result type QC Liability.

Sequences of proteins named here, by UniProt entry; tags and fusion partners are left off.
UniProt P22607, whole entry, looked up: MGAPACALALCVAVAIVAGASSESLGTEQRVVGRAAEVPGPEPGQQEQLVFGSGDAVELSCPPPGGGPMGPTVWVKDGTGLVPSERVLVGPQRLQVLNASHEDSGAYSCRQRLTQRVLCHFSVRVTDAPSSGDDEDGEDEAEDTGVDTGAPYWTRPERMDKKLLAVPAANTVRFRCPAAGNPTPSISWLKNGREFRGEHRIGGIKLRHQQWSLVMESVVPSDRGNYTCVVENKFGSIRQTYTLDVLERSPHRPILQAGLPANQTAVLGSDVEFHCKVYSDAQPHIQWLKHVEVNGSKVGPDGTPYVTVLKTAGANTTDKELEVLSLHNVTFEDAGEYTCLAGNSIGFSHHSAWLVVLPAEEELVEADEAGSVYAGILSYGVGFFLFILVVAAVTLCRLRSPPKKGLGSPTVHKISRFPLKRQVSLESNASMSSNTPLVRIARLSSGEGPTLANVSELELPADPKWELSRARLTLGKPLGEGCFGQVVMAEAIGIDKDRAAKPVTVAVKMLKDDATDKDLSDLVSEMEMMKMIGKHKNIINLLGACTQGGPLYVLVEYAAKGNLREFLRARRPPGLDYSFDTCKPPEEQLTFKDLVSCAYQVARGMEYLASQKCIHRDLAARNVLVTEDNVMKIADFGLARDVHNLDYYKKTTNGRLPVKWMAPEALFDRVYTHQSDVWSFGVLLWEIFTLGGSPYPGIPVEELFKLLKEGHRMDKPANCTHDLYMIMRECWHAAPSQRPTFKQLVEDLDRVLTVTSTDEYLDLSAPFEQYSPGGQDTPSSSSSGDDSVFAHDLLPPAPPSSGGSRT

The target of assay [1] is Fibroblast growth factor receptor 3 (Homo sapiens) (UniProt P22607). The following applies: Compound concentration 20.0 uM, Protein concentration 2.0 uM, Result type QC Liability.

By ΔTm is commonly meant the change in melting temperature against a reference sample.

As for `C[C@@H]1C[C@H](N)C[C@H](c2ccncc2NC(=O)c2ccc(F)c(-c3c(F)cccc3F)n2)C1`, the shift in melting temperature (ΔTm) is -1.85 °C at Peregrin (Homo sapiens) and 0.95 °C in assay [1].

Values taken from ChEMBL document CHEMBL5308504, “Tm Shift (DSF) assay results for EUbOPEN Chemogenomics Library” (2023).
